Measurements: patent publication US20100210536A1, “USE OF LEPTIN (22-56 ) AS A THERAPEUTIC AGENT” (priority 2007, published 2010)
Part of at least one peptide drawing is inferred or uncertain, most often the ends. Where no end group is shown, it is not given here.

What was measured:
TNF alpha = TNF alpha production assay (LPS-stimulated macrophages); conditions: TNF alpha ELISA; 10 micrograms per ml; lipopolysaccharide 200 ng/ml; overnight
[1] = tested on: Human Peripheral Blood Mononuclear Cells (PBMC); assay: B cell proliferation assay (SAC plus Interleukin-2 stimulated PBMC); format: cell-based; conditions: 10 micrograms per ml, 3H-thymidine incorporation
A549 cells [2] = assay: Apoptosis induction assay (Annexin-5); format: cell-based, human; conditions: 24 hours
[3] = tested on: spleen cells of Ovalbumin-immunized Balb/c mice (IL-2, IL-4, IL-5, IFN-γ, TNF-α); assay: Th1/Th2 cytokine profiling assay; format: cell-based, mouse; conditions: 10 micrograms per ml; Ovalbumin restimulation; 72 hours
RAW 264.7 cells = assay: Phagocytosis assay; format: cell-based, Mouse; conditions: 10 micrograms per ml; Fluorescein-labeled Escherichia coli; flow cytometry
A549 cells [4] = assay: Propidium iodide cell cycle assay; format: cell-based, human; conditions: 10 micrograms per ml, 24 hours
HUVEC = assay: Endothelial tube formation assay; format: cell-based, human; conditions: 10 micrograms per ml, 20 hours
[5] = tested on: Human Peripheral Blood Mononuclear Cells (PBMC); assay: T cell proliferation assay (PHA-stimulated PBMC); format: cell-based; conditions: 10 micrograms per ml, 3H-thymidine incorporation
[6] = tested on: Primary Human endothelial cells (HUVEC); assay: Endothelial cell migration assay; format: cell-based; conditions: 10 micrograms per ml, 22 hours
A549 cells [7] = assay: Apoptosis prevention assay (C2 ceramide, Annexin-5); format: cell-based, human; conditions: A549 cells pretreated 30 min with 10 micrograms per ml, then C2 ceramide

VPIQKVQDDTKTLIKTIVTRINDISHTQSVSSKQK-OH [Leptin (22-56)]
% of LPS induction (TNF alpha): 114.5% | % of SAC/IL2 induced control [1]: 100.8% | % of induction (A549 cells [2]): 1.8% | IFNγ spleen cells; TH1 response (% of control) [3]: 49.6 % of control | IL-2 spleen cells (% of control) [3]: 149.9 % of control | IL-4 spleen cells; TH2 response (% of control) [3]: 91.6 % of control | IL-5 spleen cells; TH2 response (% of control) [3]: 53.6 % of control | TNF-a spleen cells; TH1 response (%of control) [3]: 91.2 % of control | % of control phagocytosis (RAW 264.7 cells): 180.0% | Cell cycle analysis G0/G1 (A549 cells [4]): 57.2 | Cell cycle analysis G2/M (A549 cells [4]): 12.7 | Cell cycle analysis S (A549 cells [4]): 30.1 | % inhibition of tube formation (HUVEC): −4% | % of PHA induced control [5]: 103.7% | % inhibition of migration [6]: −20.0% | % prevention of ceramide induced apoptosis (A549 cells [7]): 21.0%
